In article PMC6468242:
These are yes or no findings as the source states them, for the method shown. Binding seen in cells or lysates may run through a third protein. These calls come from enrichment with a bait or labelling near it, and not all partners need be listed. Tags and fused reporters may be left off the sequences shown.

The chains behind the UniProt entries cited, without tags or fusion partners.
UniProt O76216: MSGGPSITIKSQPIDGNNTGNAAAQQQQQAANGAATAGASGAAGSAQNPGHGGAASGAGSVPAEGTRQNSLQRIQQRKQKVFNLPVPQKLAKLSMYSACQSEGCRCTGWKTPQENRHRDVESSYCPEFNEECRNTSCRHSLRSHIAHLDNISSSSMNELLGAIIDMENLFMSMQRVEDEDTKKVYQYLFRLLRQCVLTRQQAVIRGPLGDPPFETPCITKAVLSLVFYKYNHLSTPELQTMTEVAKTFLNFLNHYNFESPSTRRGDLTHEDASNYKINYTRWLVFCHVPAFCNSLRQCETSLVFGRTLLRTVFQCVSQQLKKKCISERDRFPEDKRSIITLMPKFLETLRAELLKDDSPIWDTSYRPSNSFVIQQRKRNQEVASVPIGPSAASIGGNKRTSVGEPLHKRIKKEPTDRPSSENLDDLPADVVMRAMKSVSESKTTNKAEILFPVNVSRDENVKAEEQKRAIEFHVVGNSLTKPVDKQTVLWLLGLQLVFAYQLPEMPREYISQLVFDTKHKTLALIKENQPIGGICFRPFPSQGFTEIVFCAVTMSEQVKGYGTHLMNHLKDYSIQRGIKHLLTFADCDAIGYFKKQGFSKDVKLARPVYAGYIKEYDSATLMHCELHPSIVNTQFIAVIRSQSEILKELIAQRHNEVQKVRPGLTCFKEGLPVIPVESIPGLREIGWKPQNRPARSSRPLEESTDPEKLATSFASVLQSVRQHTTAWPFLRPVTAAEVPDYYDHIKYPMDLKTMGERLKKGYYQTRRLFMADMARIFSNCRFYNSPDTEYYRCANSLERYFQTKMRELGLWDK

T1: Ada2b isoform B, C-terminally HA2-Flag2 tagged (Ada2b-PBH2F2) (Drosophila) (UniProt Q8I8V0)
T1 sequence: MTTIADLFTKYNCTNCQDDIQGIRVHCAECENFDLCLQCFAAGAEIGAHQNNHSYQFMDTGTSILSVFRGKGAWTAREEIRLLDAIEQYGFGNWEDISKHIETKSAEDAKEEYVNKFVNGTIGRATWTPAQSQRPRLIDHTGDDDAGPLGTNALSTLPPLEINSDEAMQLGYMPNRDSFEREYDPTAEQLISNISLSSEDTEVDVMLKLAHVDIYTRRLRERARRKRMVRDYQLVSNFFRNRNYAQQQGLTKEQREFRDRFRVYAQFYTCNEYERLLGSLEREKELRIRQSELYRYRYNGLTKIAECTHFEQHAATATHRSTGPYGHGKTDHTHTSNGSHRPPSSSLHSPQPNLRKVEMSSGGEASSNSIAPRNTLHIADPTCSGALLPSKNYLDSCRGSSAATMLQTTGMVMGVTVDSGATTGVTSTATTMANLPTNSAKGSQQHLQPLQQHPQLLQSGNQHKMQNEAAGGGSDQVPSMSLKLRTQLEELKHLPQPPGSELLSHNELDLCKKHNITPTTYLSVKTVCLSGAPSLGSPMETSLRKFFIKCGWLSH

B1: Sgf29 (protein, UniProt Q9W2I4 1-289)
chain: MPLTAESAAQQIQDRLKDIQQNIHNVDEERRRAENSIASLVRSLHATNQKVKPLLKASLTEAAQEEATIRAALAKIHEIRSIRNERRIQARNAGNKEAIRRGALMKMVQLSAQTLPLFVGKLGERAPALCGAIPAEGNYVAKVGDNVAALAKGIDEEENWILAEVVQFLHRQNKYDVIDIDEEQKDRHVLSKRKVIPLPLMRANPETDGHALFPKDTVVMALYPQTTCFYKAIVHRLPQTATEDYEVLFEDSSYTNGYAEPLPVAQRYVIAYRPTKKGAGSGSGNLSSA

What follows are molecules tested against T1, Ada2b isoform B, C-terminally HA2-Flag2 tagged (Ada2b-PBH2F2) (Drosophila) (assay: affinity purification with mass spectrometry; Flag affinity purification of Ada2b-PBH2F2 from S2 nuclear extract, Superose 6 gel filtration, MudPIT of input, fractions 12+14 (SAGA) and 18+19 (ADA) and mock).

| binding | Molecule |
| --- | --- |
| binds | Gcn5 (from UniProt O76216 1-813) (enzyme) |
| binds | Ada3 (Drosophila (endogenous in S2 cells)) |
| binds | B1 |
